Where “and” joins values, the source holds several entries; their conditions need not be identical. Equal values may be shown once.
Key:
[1] = Biomass pretreatment using PBIL: solid recovery and composition
[2] = Compositional analysis of switchgrass after IL pretreatment; parameters: species or system Panicum virgatum; conditions: for Glucan / Lignin / Xylan: solid loading 10 wt %
Description: Thus, compositional analysis of untreated, and pretreated SG with [EOA][OAc] at different temperatures and time was studied and the results were summarized in Table 4. Solid recovery refers to the mass percentage of biomass (dry weight) recovered from the original biomass load. After washing, 55-81% of the biomass was recovered. […] Untreated SG contained 29.6% glucan, 18.4% xylan and 20% acid insoluble lignin (entry 1). […] This trend was most obvious after pretreatment under higher temperature where lignin content was reduced by 77% (untreated: 20% vs. pretreated: 4.7%). […] IL are consistent with our previous report by using basic ILs such as [Ch][Lys] and [C2C1Im][Lys].^13
Compositional analysis of SG before and after pretreatment was performed using NREL acidolysis protocols (LAP) LAP-002 and LAP-005, which was described in our previous work.^13 In a typical process, 200 mg of biomass and 2 mL of 72 wt % H2SO4 were incubated at 30° C. while shaking at 300 rpm for 1 h. The solution was diluted to 4 wt % H2SO4 with 56 mL of DI water and autoclaved for 1 h at 121° C. The reaction was quenched into an ice bath before removing the biomass by filtration. Carbohydrate concentrations were determined from the filtrate using an Agilent HPLC 1200 Series equipped with a Bio-Rad Aminex HPX-87H column and a Refractive Index detector. An aqueous solution of H2SO4 (4 mM) was used as the mobile phase (0.6 mL min^−I, column temperature 50° C.). The injection volume was 20 pt with a run time of 20 min. Acid insoluble lignin was quantified gravimetrically from the solid after heating overnight at 105° C. (the weight of acid-insoluble lignin+ash) and then at 575° C. for at least 6 h (the weight of ash).

C[N+](C)(C)CCO.C[N+](C)(C)CCO.O=P([O-])([O-])O [[Ch]2[HPO4]]
Composition Glucan % ([1]; T/t 140/1, IL 20%): 47.6%
Composition Lignin % ([1]; T/t 140/1, IL 20%): 17.9%
Composition Xylan % ([1]; T/t 140/1, IL 20%): 21.9%
Composition Lignin % ([1]; T/t 140/1, IL 50%): 15.9%
Composition Xylan % ([1]; T/t 140/1, IL 50%): 21.7%
Composition Glucan % ([1]; T/t 140/1, IL 100%): 51.8%
Composition Lignin % ([1]; T/t 140/1, IL 100%): 13.0%
Composition Xylan % ([1]; T/t 140/1, IL 100%): 18.7%

C[N+](C)(C)CCO.C[N+](C)(C)CCO.C[N+](C)(C)CCO.O=P([O-])([O-])[O-] [[Ch]3[PO4]]
Composition Glucan % ([1]; T/t 140/1, IL 20%): 51.8%
Composition Lignin % ([1]; T/t 140/1, IL 20%): 11.7%
Composition Xylan % ([1]; T/t 140/1, IL 20%): 23.8%
Composition Glucan % ([1]; T/t 140/1, IL 50%): 61.5%
Composition Lignin % ([1]; T/t 140/1, IL 50%): 4.6%
Composition Xylan % ([1]; T/t 140/1, IL 50%): 18.8%
Composition Glucan % ([1]; T/t 140/1, IL 100%): 44.0%
Composition Lignin % ([1]; T/t 140/1, IL 100%): 7.8%
Composition Xylan % ([1]; T/t 140/1, IL 100%): 15.3%

C[N+](C)(C)CCO.O=P([O-])(O)O [[Ch][H2PO4], Cholinium dihydrogen-phosphate]
Composition Glucan % ([1]; T/t 140/1, IL 20%): 39.4%
Composition Lignin % ([1]; T/t 140/1, IL 20%): 20.3%
Composition Xylan % ([1]; T/t 140/1, IL 20%): 24.4%
Composition Glucan % ([1]; T/t 140/1, IL 50%): 37.8%
Composition Lignin % ([1]; T/t 140/1, IL 50%): 18.5%
Composition Xylan % ([1]; T/t 140/1, IL 50%): 22.6%
Composition Glucan % ([1]; T/t 140/1, IL 100%): 39.5%
Composition Lignin % ([1]; T/t 140/1, IL 100%): 19.5%
Composition Xylan % ([1]; T/t 140/1, IL 100%): 23.9%

CC(=O)O.NCCO [[EOA][OAc], ethanolamine acetate]
Glucan ([2]; 120 °C/1 h): 40.6 ± 0.4%
Lignin ([2]; 120 °C/1 h): 11.6 ± 0.5%
Xylan ([2]; 120 °C/1 h): 25.4 ± 0.2%
Glucan ([2]; 120 °C/3 h): 42.5 ± 0.7%
Lignin ([2]; 120 °C/3 h): 9.1 ± 1.8%
Xylan ([2]; 120 °C/3 h): 26.0 ± 0.1%
Glucan ([2]; 140 °C/1 h): 48.2 ± 0.6%
Lignin ([2]; 140 °C/1 h): 8.4 ± 1.2%
Xylan ([2]; 140 °C/1 h): 24.2 ± 1.1%
Glucan ([2]; 140 °C/3 h): 47.5 ± 0.1%
Lignin ([2]; 140 °C/3 h): 6.5 ± 0.4%
Xylan ([2]; 140 °C/3 h): 24.0 ± 0.4%
Glucan ([2]; 160 °C/0.5 h): 48.0% and 48.0 ± 1.6%
Lignin ([2]; 160 °C/0.5 h): 6.1 ± 1.4%
Xylan ([2]; 160 °C/0.5 h): 25.8 ± 0.6%
Glucan ([2]; 160 °C/1 h): 48.9% and 48.9 ± 1.6%
Lignin ([2]; 160 °C/1 h): 5.7 ± 1.6%
Xylan ([2]; 160 °C/1 h): 26.6 ± 0.5%
Glucan ([2]; 160 °C/3 h): 49.8% and 49.8 ± 0.2%
Lignin ([2]; 160 °C/3 h): 4.7% and 4.7 ± 0.8%
Xylan ([2]; 160 °C/3 h): 26.1 ± 0.9%
xylan contents for pretreated biomass ([2]; over all temperatures and times): 24-27%

CCCCN(CCCC)CCCC.O=P(O)(O)O [[N444][H2PO4]]
Composition Glucan % ([1]; T/t 50/3): 39.6%
Composition Lignin % ([1]; T/t 50/3): 18.6%
Composition Xylan % ([1]; T/t 50/3): 21.6%
Composition Glucan % ([1]; T/t 90/3): 37.7%
Composition Lignin % ([1]; T/t 90/3): 18.8%
Composition Xylan % ([1]; T/t 90/3): 21.1%

Source: patent publication US20190292572A1, “Novel protic or phosphate-based ionic liquids useful for lignocellulosic processing” (priority 2016, published 2019)
